According to US20110319274A1 (Carlsberg A/S, priority 2004, published 2011):

How the values were obtained:
[1] = general procedure: Fmoc solid-phase peptide synthesis; PEGA resin with Fmoc-Rink amide linker; TBTU/NEM; conditions: whole synthesis, scale 0.056 mmol
[2] = general procedure: Fmoc solid-phase peptide synthesis; HMBA-Gly-PEGA; TBTU/NEM; conditions: whole synthesis; for crude yield: scale of the general procedure 0.056 mmol

Ac-His-(D)phe-Arg-Trp-NH2
crude mass [1]: 36.93 mg
crude yield [1]: 96%

Lys-Dap(N3)-His-(D)Phe-Arg-Trp-Pra-Met cyclic
crude yield ([2]; run 1): 82.5%
crude yield ([2]; run 2): 79%
crude mass ([2]; run 1): 8.1 mg
crude mass ([2]; run 2): 7.8 mg
